Values from PubChem BioAssay AID1259424 (University of Nebraska Medical Center, 2018).
Assay: 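Find knockdowns that reproduce the expression shifts seen after KSR1 loss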 (primary screen). System: human HCT116 colon cancer cells. Knock-down reagent: siRNA pool against human genes, 50 nM. Measurement: 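Log2 levels of six mRNAs (branched-DNA multiplex), adjusted by two reference genes and the non-targeting median, then scored against the average KSR1 knockdown pattern as Pearson r and euclidean distance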. Scale: mean correlation with KSR1 profile and KSR1 correlation: higher = expression change more like KSR1 knockdown; mean distance from KSR1 profile: higher = expression change less like KSR1 knockdown.
The deposit covers about 14,000 reagents; this is an unselected part. 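Higher correlation or smaller distance means closer resemblance to KSR1 loss; control wells, including KSR1 knockdowns, recur on many plates.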 Not given: the time to read-out.

| target gene | mean correlation with KSR1 profile | mean distance from KSR1 profile | KSR1 correlation, replicate 1 | KSR1 correlation, replicate 2 | KSR1 correlation, replicate 3 |
| --- | --- | --- | --- | --- | --- |
| CNFN (GeneID 84518) | 0.419 | 5.69 | 0.39 | 0.599 | 0.307 |
| PCDH17 (GeneID 27253) | 0.979 | 1.59 | 0.939 | 0.55 | 0.839 |
| APOB (GeneID 338) | 0.0125 | 2.58 | -0.103 | -0.113 | 0.0758 |
| GLDC (GeneID 2731) | 0.015 | 1.5 | 0.0679 | -0.123 | 0.0108 |
| TMEM184B (GeneID 25829) | 0.609 | 1.05 | 0.819 | 0.582 | 0.299 |
| ZCCHC7 (GeneID 84186) | 0.757 | 1.1 | 0.709 | 0.633 | 0.709 |
| NPTX2 (GeneID 4885) | 0.784 | 1.21 | 0.805 | 0.89 | 0.754 |
| SLC12A9 (GeneID 56996) | 0.602 | 2.29 | 0.271 | 0.758 | 0.781 |
| NYAP2 (GeneID 57624) | -0.724 | 7.19 | -0.0983 | -0.606 | -0.269 |
| PRSS16 (GeneID 10279) | 0.275 | 2.99 | 0.342 | 0.214 | 0.236 |
| RC3H2 (GeneID 54542) | -0.185 | 1.67 | -0.306 | -0.0937 | -0.437 |
| RALGAPA2 (GeneID 57186) | -0.0474 | 2.22 | 0.343 | -0.229 | -0.308 |
| MED17 (GeneID 9440) | -0.489 | 2.43 | -0.29 | -0.433 | -0.806 |
| EPHA3 (GeneID 2042) | 0.721 | 2.71 | 0.613 | 0.786 | 0.529 |
| PFKM (GeneID 5213) | -0.321 | 2.09 | -0.331 | 0.148 | -0.383 |
| PPEF2 (GeneID 5470) | -0.335 | 3.12 | -0.353 | -0.339 | -0.432 |
| PARVG (GeneID 64098) | -0.31 | 1.72 | -0.368 | -0.196 | -0.221 |
| GPSM1 (GeneID 26086) | 0.143 | 1.53 | 0.652 | 0.244 | -0.419 |
| PELP1 (GeneID 27043) | 0.441 | 0.976 | 0.305 | 0.311 | 0.342 |

The list goes on (3 carried over from the part before).
| target gene | mean correlation with KSR1 profile | mean distance from KSR1 profile | KSR1 correlation, replicate 1 | KSR1 correlation, replicate 2 | KSR1 correlation, replicate 3 |
| --- | --- | --- | --- | --- | --- |
| PARVG (GeneID 64098) | -0.31 | 1.72 | -0.368 | -0.196 | -0.221 |
| GPSM1 (GeneID 26086) | 0.143 | 1.53 | 0.652 | 0.244 | -0.419 |
| PELP1 (GeneID 27043) | 0.441 | 0.976 | 0.305 | 0.311 | 0.342 |
| B4GALT7 (GeneID 11285) | 0.181 | 2.62 | 0.163 | 0.254 | 0.219 |
| DDIT4 (GeneID 54541) | -0.344 | 2.29 | -0.359 | -0.126 | -0.551 |
| COX8A (GeneID 1351) | -0.0117 | 1.73 | 0.217 | -0.0756 | -0.164 |
| IFT140 (GeneID 9742) | 0.254 | 1.58 | 0.17 | 0.308 | 0.36 |
| LONP1 (GeneID 9361) | -0.0468 | 2.01 | -0.192 | 0.385 | -0.129 |
| DYNC1H1 (GeneID 1778) | -0.967 | 2.49 | -0.934 | -0.964 | -0.98 |
| PTS (GeneID 5805) | -0.618 | 1.98 | -0.763 | -0.677 | -0.389 |
| CCNF (GeneID 899) | -0.248 | 1.97 | -0.343 | -0.252 | -0.288 |
| CELSR2 (GeneID 1952) | 0.883 | 0.863 | 0.787 | 0.852 | 0.82 |
| ARHGEF6 (GeneID 9459) | -0.418 | 1.3 | -0.404 | -0.221 | -0.538 |
| BLVRA (GeneID 644) | 0.646 | 1.23 | 0.059 | 0.937 | 0.571 |
| RRP9 (GeneID 9136) | -0.401 | 1.44 | -0.32 | -0.357 | -0.296 |
| OR8G2P (GeneID 26492) | 0.122 | 1.16 | -0.281 | 0.181 | 0.0388 |
| CCDC9 (GeneID 26093) | -0.248 | 4.07 | -0.338 | -0.366 | -0.202 |
| CSPG4P2Y (GeneID 84664) | -0.00737 | 3.16 | 0.283 | -0.116 | -0.32 |
| PIN4 (GeneID 5303) | 0.0509 | 1.55 | 0.116 | 0.418 | -0.0958 |
| FBXO5 (GeneID 26271) | 0.485 | 0.832 | 0.641 | 0.295 | 0.259 |
| SUGP1 (GeneID 57794) | 0.147 | 1.71 | -0.169 | 0.345 | 0.288 |
| KBTBD2 (GeneID 25948) | -0.648 | 1.64 | -0.29 | -0.777 | -0.555 |
| CTRL (GeneID 1506) | 0.199 | 1.64 | 0.331 | 0.446 | 0.428 |
| KPNB1 (GeneID 3837) | 0.247 | 1.29 | -0.117 | -0.012 | 0.538 |
| GARRE1 (GeneID 9710) | 0.0733 | 4.16 | 0.169 | 0.0197 | 0.181 |
| PIBF1 (GeneID 10464) | 0.345 | 1.79 | 0.459 | 0.356 | 0.34 |
| PHF21A (GeneID 51317) | -0.524 | 1.42 | -0.458 | -0.678 | -0.111 |
| ANGPT2 (GeneID 285) | -0.523 | 3.26 | -0.518 | -0.525 | -0.616 |
| ZSCAN12 (GeneID 9753) | -0.541 | 1.21 | 0.00209 | -0.275 | -0.651 |
| SF3B6 (GeneID 51639) | -0.55 | 3.38 | -0.443 | -0.654 | -0.52 |
| ANXA13 (GeneID 312) | 0.126 | 1.66 | 0.453 | -0.127 | -0.0717 |
| CUL9 (GeneID 23113) | 0.315 | 1.94 | 0.151 | 0.383 | 0.177 |
| SMARCA1 (GeneID 6594) | 0.0875 | 2.28 | 0.0509 | 0.00742 | 0.243 |
| SFTPD (GeneID 6441) | 0.0297 | 1.62 | 0.00495 | 0.247 | -0.361 |
